# Test results taken from PMC10802587 (bioRxiv, 2024).
# Tested on: Dd2-B2 parasites
# Assay: Minimum inoculum of resistance
# Format: cell-based, P. falciparum
# Conditions: 5×EC50, 3.3 × 10^8 parasites per flask, three flasks
smiles,measurement,value
CCCCCCCCCCCCCCCP(=O)(OCC)Oc1cc(F)cc(F)c1 (stereo not shown) [Compound 22],MIR value (minimum inoculum of resistance),1× 10^9
